Some entries share one result that the patent states for a list of compounds.
Test system: human PBMC
Assay: Phagocytosis of C. albicans and S. mutans by PBMC (NBT reduction / live Candida albicans phagocytosis)
Type: cell-based
Settings: 5-20 μg/ml individually, 75 μg/ml mixture (Table 1, FIG. 1 column), 24 h, FIG. 1B

Compound: O=C1O[C@H]([C@@H](O)CO)C(O)=C1O [Vitamin C]
- phagocytosis of C. albicans and S. mutans by human PBMC: up to 50%
